Measured values taken from the supplement of paper PMC10849652.
The list shows a part of the results.

Sequences of proteins named here, by UniProt entry; tags and fusion partners are left off. A change or cut given only in a name is not applied to a line headed by its entry.
UniProt Q8IWB7: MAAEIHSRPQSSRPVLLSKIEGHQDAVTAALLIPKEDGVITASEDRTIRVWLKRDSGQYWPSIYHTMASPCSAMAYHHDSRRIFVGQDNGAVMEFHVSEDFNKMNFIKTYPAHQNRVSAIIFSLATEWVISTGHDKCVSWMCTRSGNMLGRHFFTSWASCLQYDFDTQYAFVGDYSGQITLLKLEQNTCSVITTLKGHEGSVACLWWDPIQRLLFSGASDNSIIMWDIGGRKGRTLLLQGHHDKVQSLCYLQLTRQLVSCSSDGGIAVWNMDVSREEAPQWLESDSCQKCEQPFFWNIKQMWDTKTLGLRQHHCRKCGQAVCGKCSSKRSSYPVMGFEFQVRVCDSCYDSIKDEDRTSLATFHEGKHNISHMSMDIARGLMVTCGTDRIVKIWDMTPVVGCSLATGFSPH
UniProt Q9HAD4: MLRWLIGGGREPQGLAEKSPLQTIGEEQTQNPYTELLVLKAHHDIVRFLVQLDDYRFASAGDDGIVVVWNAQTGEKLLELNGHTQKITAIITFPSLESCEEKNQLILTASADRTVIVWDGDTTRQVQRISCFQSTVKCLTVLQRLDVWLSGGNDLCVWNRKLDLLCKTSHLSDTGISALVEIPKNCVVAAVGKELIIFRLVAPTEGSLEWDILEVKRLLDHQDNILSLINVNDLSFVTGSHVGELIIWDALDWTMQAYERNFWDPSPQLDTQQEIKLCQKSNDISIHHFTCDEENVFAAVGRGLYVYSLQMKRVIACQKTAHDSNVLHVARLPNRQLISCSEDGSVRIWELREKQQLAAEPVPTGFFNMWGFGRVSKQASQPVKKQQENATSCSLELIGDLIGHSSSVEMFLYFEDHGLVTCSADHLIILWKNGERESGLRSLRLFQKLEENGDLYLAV
UniProt A3KMH1: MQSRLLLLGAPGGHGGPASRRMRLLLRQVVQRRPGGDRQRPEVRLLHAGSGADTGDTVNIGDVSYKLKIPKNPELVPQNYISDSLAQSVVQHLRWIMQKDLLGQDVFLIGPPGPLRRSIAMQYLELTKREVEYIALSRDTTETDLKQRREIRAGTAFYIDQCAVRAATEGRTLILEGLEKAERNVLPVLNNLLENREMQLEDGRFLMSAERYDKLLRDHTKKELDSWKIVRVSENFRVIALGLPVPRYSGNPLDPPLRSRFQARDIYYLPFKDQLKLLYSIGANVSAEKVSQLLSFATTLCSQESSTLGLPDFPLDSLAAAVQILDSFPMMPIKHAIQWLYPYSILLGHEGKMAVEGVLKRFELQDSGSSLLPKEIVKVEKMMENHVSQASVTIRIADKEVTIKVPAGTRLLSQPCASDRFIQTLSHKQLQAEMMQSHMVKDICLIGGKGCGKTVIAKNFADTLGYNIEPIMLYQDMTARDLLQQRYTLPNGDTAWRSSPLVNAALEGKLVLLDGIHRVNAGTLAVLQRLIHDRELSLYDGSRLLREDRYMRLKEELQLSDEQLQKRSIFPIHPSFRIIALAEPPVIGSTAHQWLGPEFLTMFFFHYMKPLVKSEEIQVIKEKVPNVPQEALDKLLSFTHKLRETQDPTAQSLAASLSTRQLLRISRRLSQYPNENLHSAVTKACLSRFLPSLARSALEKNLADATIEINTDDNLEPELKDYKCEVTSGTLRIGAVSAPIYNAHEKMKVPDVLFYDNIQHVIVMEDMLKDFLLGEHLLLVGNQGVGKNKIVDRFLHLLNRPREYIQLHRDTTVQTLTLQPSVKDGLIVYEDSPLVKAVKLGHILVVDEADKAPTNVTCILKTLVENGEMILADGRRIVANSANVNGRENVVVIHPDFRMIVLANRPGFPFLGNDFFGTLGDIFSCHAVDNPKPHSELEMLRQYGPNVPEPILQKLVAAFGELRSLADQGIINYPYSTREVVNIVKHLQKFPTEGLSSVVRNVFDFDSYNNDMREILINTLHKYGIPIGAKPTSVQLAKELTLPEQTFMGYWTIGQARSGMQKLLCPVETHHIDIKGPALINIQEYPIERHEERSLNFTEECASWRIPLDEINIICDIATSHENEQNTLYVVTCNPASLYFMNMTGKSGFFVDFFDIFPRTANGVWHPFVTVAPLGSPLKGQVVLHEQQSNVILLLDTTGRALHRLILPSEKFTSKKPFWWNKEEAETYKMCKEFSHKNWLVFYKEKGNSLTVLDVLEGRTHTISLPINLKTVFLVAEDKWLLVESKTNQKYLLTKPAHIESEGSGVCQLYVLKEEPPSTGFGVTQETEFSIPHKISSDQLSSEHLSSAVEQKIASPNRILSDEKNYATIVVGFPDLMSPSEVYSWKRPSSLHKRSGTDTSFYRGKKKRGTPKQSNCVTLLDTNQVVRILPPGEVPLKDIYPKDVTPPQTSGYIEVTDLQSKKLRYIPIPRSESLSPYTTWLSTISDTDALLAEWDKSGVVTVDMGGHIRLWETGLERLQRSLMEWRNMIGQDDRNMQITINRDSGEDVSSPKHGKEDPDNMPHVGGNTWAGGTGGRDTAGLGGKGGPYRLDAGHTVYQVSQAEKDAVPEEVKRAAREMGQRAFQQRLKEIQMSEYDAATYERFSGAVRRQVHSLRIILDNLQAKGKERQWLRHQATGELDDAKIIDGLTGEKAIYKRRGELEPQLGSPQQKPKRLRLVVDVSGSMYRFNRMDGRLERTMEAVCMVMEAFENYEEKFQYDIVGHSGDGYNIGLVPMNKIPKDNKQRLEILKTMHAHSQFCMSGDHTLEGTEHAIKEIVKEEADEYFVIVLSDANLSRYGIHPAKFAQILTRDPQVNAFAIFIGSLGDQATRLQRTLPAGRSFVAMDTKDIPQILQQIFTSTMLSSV
UniProt Q969T9: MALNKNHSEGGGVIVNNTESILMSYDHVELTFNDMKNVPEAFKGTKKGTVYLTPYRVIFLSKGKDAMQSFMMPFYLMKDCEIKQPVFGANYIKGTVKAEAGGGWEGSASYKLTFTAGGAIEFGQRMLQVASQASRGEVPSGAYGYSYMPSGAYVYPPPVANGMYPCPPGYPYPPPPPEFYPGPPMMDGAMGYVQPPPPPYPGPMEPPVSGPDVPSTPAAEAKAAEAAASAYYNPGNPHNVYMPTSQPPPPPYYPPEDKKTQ
UniProt Q86Y07: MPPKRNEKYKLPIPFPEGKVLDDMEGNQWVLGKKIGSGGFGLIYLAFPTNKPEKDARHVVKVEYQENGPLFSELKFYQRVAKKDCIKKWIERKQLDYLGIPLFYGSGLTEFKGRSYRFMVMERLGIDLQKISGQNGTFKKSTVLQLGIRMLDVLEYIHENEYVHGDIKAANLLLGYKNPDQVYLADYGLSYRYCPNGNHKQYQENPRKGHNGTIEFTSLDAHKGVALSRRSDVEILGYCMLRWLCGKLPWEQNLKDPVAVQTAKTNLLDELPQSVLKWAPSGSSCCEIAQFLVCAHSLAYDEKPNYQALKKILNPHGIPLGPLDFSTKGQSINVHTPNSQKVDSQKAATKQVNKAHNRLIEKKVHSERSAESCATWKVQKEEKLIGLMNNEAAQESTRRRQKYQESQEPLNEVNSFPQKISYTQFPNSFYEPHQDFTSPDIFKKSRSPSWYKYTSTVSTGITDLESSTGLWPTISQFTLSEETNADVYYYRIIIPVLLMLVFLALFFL
UniProt Q8NEZ2: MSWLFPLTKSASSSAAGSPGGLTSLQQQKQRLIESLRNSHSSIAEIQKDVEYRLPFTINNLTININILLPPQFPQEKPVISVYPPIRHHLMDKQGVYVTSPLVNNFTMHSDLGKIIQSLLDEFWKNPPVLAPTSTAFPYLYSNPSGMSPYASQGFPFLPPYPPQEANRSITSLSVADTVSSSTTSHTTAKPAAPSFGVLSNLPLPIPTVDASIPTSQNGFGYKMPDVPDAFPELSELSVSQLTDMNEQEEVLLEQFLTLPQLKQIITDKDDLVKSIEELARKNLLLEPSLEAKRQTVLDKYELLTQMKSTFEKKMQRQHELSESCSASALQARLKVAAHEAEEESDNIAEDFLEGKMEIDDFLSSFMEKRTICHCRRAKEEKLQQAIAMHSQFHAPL

Experiments:
Experiment in all cases: log2 fold change, soluble protein after heating vs DMSO (PISA); higher = thermal stabilisation; K562 lysate, 10 uM; active = over 0.2 and 3.5 SD of the protein, either way, in both replicates (recomputed)
[1] = compound: C=CC(=O)N1CCC[C@@H](n2nc(-c3ccc(Oc4ccccc4)cc3)c3c(N)ncnc32)C1 [ibrutinib]
Procedure, shortened: (§1)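 K562 pellets were dounce-homogenised in PBS pH 7.4 containing 1 mM MgCl2, and the crude extract, at 1 mg/mL protein, was exposed to 10 μM compound for 30 min. Aliquots were heated for 3 min across 48°C-58°C, pooled, brought to 0.5% NP-40 at 4°C and spun at 21,000xg for 90 min, with the supernatant taken as soluble protein. TMTpro 16plex LC-MS/MS with equalised channel sums quantified that protein. Values are log-two fold changes in thermal stability relative to solvent controls, taken from duplicates.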

[2] = compound: CC(=O)c1cnc2ccc(-c3cc(Cl)c(O)c(Cl)c3)nc2c1N[C@H]1CC[C@H](CN(C)C)CC1
Procedure, shortened: as §1

[3] = compound: CC(C)(C)Cn1c(N)nc2ccc(-c3[nH]c(C(C)(C)C)nc3-c3ccc(F)cc3)nc21 [ralimetinib]
Procedure, shortened: as §1

[4] = compound: CC(C)(O)CC(=O)NCCn1ccc2ncnc(Nc3ccc(Oc4cccc(C(F)(F)F)c4)c(Cl)c3)c21
Procedure, shortened: as §1

[5] = compound: CC(C)C1=C2N=C(C=C(N2N=C1)NCC3=CC=CC=C3)NCCCCCCN
Procedure, shortened: as §1

[6] = compound: CC1=C(C(CC(=O)N1)C2=CC=C(C=C2)C(F)(F)F)C(=O)NC3=C(C=C4C(=C3)C=NN4)F
Procedure, shortened: as §1

[7] = compound: CC1=C(C2=C(C=C1)C(=O)C3=CC=CC=C3N2CCCN)C
Procedure, shortened: as §1

[8] = compound: CC1=C(C=C(C=C1)NC(=O)C2=CC(=CC=C2)C(C)(C)C#N)NC3=CC4=C(C=C3)N=CN(C4=O)C
Procedure, shortened: as §1

[9] = compound: CC1=C(C=C(C=C1)NC(=O)C2=CC(=CC=C2)N(C)C)NC(=O)C3=CC=C(C=C3)O
Procedure, shortened: as §1

[10] = compound: CC1=CC=C(C=C1)SC2=C3C=C(SC3=CN=C2)C(=O)N
Procedure, shortened: as §1

[11] = compound: CCCS(=O)(=O)Nc1ccc(F)c(C(=O)c2c[nH]c3ncc(-c4ccc(Cl)cc4)cc23)c1F [vemurafenib]
Procedure, shortened: as §1

[12] = compound: CCCS(=O)(=O)Nc1ccc(F)c(C(=O)c2c[nH]c3ncc(Cl)cc23)c1F
Procedure, shortened: as §1

[13] = compound: CCN(CCCOc1ccc2c(Nc3cc(CC(=O)Nc4cccc(F)c4)[nH]n3)ncnc2c1)CCOP(=O)(O)O [barasertib]
Procedure, shortened: as §1

[14] = compound: CC[C@@H]1C(=O)N(C)c2cnc(Nc3ccc(C(=O)NC4CCN(C)CC4)cc3OC)nc2N1C1CCCC1
Procedure, shortened: as §1

[15] = compound: CC[C@@H]1C(=O)N(C)c2cnc(Nc3ccc(C(=O)N[C@H]4CC[C@H](N5CCN(CC6CC6)CC5)CC4)cc3OC)nc2N1C(C)C [volasertib]
Procedure, shortened: as §1

[16] = compound: CCn1c(C(=O)N(C2CC2)C2CC2)cc2c3c(ncn3C)c(Nc3cc(C)n(C)n3)nc21
Procedure, shortened: as §1

[17] = compound: CCn1cc(-c2ccnc3[nH]c(-c4cccc(CN(C)C)c4)cc23)c(-c2ccc(NC(=O)N(C)C)cc2)n1
Procedure, shortened: as §1

[18] = compound: CN1CCC(CNc2ccc3ncc(-c4cccc(OC(F)(F)F)c4)n3n2)CC1
Procedure, shortened: as §1

[19] = compound: CN1CCN(CCOc2cc(OC3CCOCC3)c3c(Nc4c(Cl)ccc5c4OCO5)ncnc3c2)CC1 [saracatinib]
Procedure, shortened: as §1

[20] = compound: CN1CCN(c2nc(C3=C(c4c[nH]c5ccccc45)C(=O)NC3=O)c3ccccc3n2)CC1 [sotrastaurin]
Procedure, shortened: as §1

| Target | log2 fold change [1] | log2 fold change [2] | log2 fold change [3] | log2 fold change [4] | log2 fold change [5] | log2 fold change [6] | log2 fold change [7] | log2 fold change [8] | log2 fold change [9] | log2 fold change [10] | log2 fold change [11] | log2 fold change [12] | log2 fold change [13] | log2 fold change [14] | log2 fold change [15] | log2 fold change [16] | log2 fold change [17] | log2 fold change [18] | log2 fold change [19] | log2 fold change [20] |
| --- | --- | --- | --- | --- | --- | --- | --- | --- | --- | --- | --- | --- | --- | --- | --- | --- | --- | --- | --- | --- |
| VPS13C (UniProt Q709C8) | inactive: -0.011 | inactive: 0.005 | inactive: 0.02 | inactive: 0.006 | inactive: -0.001 | active: 0.251 | inactive: -0.066 | inactive: 0.041 | inactive: -0.007 | inactive: -0.053 | inactive: 0.018 | inactive: 0.028 | inactive: 0.12 | inactive: 0.112 | inactive: -0.017 | inactive: -0.01 | inactive: 0 | inactive: 0.02 | inactive: 0.028 | inactive: 0.026 |
| WDFY1 (UniProt Q8IWB7) | inactive: -0.042 | inactive: -0.003 | inactive: 0.032 | inactive: -0.032 | inactive: -0.072 | inactive: -0.053 | inactive: 0.01 | inactive: 0.059 | inactive: 0.061 | inactive: -0.042 | inactive: 0.04 | inactive: -0.001 | inactive: 0.014 | inactive: 0.01 | inactive: 0.008 | inactive: -0.018 | inactive: -0.021 | inactive: 0.11 | inactive: -0.013 | inactive: 0.021 |
| WDR41 (UniProt Q9HAD4) | inactive: -0.163 | inactive: -0.004 | inactive: 0.017 | inactive: 0.088 | inactive: -0.015 | inactive: 0.03 | inactive: -0.054 | inactive: 0.164 | inactive: -0.049 | inactive: 0.015 | inactive: -0.018 | inactive: 0.036 | inactive: -0.07 | inactive: 0.089 | inactive: 0.005 | inactive: 0.053 | inactive: -0.032 | inactive: 0.053 | inactive: 0.017 | inactive: 0.043 |
| VWA8 (UniProt A3KMH1) | inactive: -0.084 | inactive: -0.509 | inactive: 0.001 | inactive: -0.208 | inactive: 0.001 | inactive: 0 | inactive: -0.066 | inactive: 0.005 | inactive: 0.039 | inactive: 0.056 | inactive: 0.061 | inactive: 0.024 | inactive: 0.152 | inactive: -0.173 | inactive: 0.031 | inactive: 0.015 | inactive: 0.123 | inactive: -0.075 | inactive: 0.055 | inactive: 0.079 |
| VPS29 isoform 2 (UniProt Q9UBQ0) | inactive: 0.04 | inactive: -0.029 | inactive: -0.048 | inactive: -0.025 | inactive: 0.012 | inactive: -0.056 | inactive: 0.017 | inactive: 0.039 | inactive: -0.028 | inactive: -0.004 | inactive: -0.044 | inactive: 0.018 | inactive: 0.026 | inactive: -0.02 | inactive: 0.002 | inactive: -0.009 | inactive: 0.037 | inactive: 0.051 | inactive: 0 | inactive: -0.058 |
| WBP2 (UniProt Q969T9) | inactive: 0.028 | inactive: -0.027 | inactive: -0.052 | inactive: 0.013 | inactive: 0.015 | inactive: -0.003 | inactive: -0.032 | inactive: -0.039 | inactive: -0.015 | inactive: -0.03 | inactive: -0.009 | inactive: 0.021 | inactive: -0.018 | inactive: 0.056 | inactive: 0.018 | inactive: 0.011 | inactive: 0.155 | inactive: -0.028 | inactive: 0.003 | inactive: -0.033 |
| VRK2 (UniProt Q86Y07) | inactive: 0.049 | inactive: 0.106 | inactive: 0.155 | inactive: -0.041 | inactive: -0.037 | inactive: -0.036 | inactive: -0.026 | inactive: -0.021 | inactive: 0.023 | inactive: 0.149 | inactive: 0.113 | inactive: 0.148 | inactive: 0.048 | inactive: -0.032 | inactive: -0.008 | inactive: 0.01 | inactive: -0.104 | inactive: 0.182 | inactive: -0.022 | inactive: 0.151 |
| VPS37A (UniProt Q8NEZ2) | inactive: -0.012 | inactive: 0.021 | inactive: 0.013 | inactive: 0.002 | inactive: -0.02 | inactive: 0.066 | inactive: 0.036 | inactive: -0.103 | inactive: 0.02 | inactive: -0.02 | inactive: 0.032 | inactive: 0.029 | inactive: 0.074 | inactive: 0.018 | inactive: -0.027 | inactive: 0.067 | inactive: 0.008 | inactive: -0.092 | inactive: 0.044 | inactive: 0 |

Given as tab-separated lines: part of the list above
Target	log2 fold change [1]	log2 fold change [2]	log2 fold change [3]	log2 fold change [4]	log2 fold change [5]	log2 fold change [6]	log2 fold change [7]	log2 fold change [8]	log2 fold change [9]	log2 fold change [10]	log2 fold change [11]	log2 fold change [12]	log2 fold change [13]	log2 fold change [14]	log2 fold change [15]	log2 fold change [16]	log2 fold change [17]	log2 fold change [18]	log2 fold change [19]	log2 fold change [20]
WDFY1 (UniProt Q8IWB7)	inactive: -0.042	inactive: -0.003	inactive: 0.032	inactive: -0.032	inactive: -0.072	inactive: -0.053	inactive: 0.01	inactive: 0.059	inactive: 0.061	inactive: -0.042	inactive: 0.04	inactive: -0.001	inactive: 0.014	inactive: 0.01	inactive: 0.008	inactive: -0.018	inactive: -0.021	inactive: 0.11	inactive: -0.013	inactive: 0.021
WBP2 (UniProt Q969T9)	inactive: 0.028	inactive: -0.027	inactive: -0.052	inactive: 0.013	inactive: 0.015	inactive: -0.003	inactive: -0.032	inactive: -0.039	inactive: -0.015	inactive: -0.03	inactive: -0.009	inactive: 0.021	inactive: -0.018	inactive: 0.056	inactive: 0.018	inactive: 0.011	inactive: 0.155	inactive: -0.028	inactive: 0.003	inactive: -0.033
